In patent publication EP1321493A1, “Method for enhancing the solubility of a colorant” (DSM N.V., priority 2001, dated 2003):

Experiment: Stain testing (wash test for residual staining / washability)
Set-up: key: 0 = excellent washability; 1 = very good washability; 2 = good washability; 3 = medium washability; 4 = slight washability; 5 = no washability
Settings: Comparative Experiment, pure dye; saturated solution, 100 mg dye in 1 ml of water; 4 droplets, left overnight, running tap water for 10 minutes

Molecule	Staining result
O=C1/C(=C2\Nc3ccc(S(=O)(=O)[O-])cc3C2=O)Nc2ccc(S(=O)(=O)[O-])cc21.[Na+].[Na+] [Acid Blue 74]	4
Reactive Blue 4	4
CCN(CC)c1ccc(C(=C2C=CC(=[N+](CC)CC)C=C2)c2ccc(S(=O)(=O)[O-])cc2S(=O)(=O)[O-])cc1.[Na+] [Acid Blue 1]	2
Acid Yellow 17	2
CC1=C/C(=C(\c2ccc(N)c(S(=O)(=O)[O-])c2)c2ccc(N)c(S(=O)(=O)O)c2)C=C(S(=O)(=O)[O-])C1=N.[Na+].[Na+] [Acid Violet 19]	3
Nc1c(N=Nc2ccc(S(=O)(=O)CCOS(=O)(=O)[O-])cc2)c(S(=O)(=O)[O-])cc2cc(S(=O)(=O)[O-])c(N=Nc3ccc(S(=O)(=O)CCOS(=O)(=O)[O-])cc3)c(O)c12.[Na+].[Na+].[Na+].[Na+] [Reactive Black 5]	4
CN(c1ccccc1)c1nc(Cl)nc(Nc2cc(S(=O)(=O)[O-])cc3cc(S(=O)(=O)[O-])c(N=Nc4ccccc4S(=O)(=O)[O-])c(O)c23)n1.[Na+].[Na+].[Na+] [Reactive Red 24]	4
CCN(Cc1cccc(S(=O)(=O)[O-])c1)c1ccc(C(=C2C=CC(=[N+](CC)Cc3cccc(S(=O)(=O)[O-])c3)C=C2)c2ccc(S(=O)(=O)[O-])cc2)cc1.[Na+].[Na+] [Acid Green 5]	4
CCN(CC)c1ccc2c(-c3ccc(S(=O)(=O)[O-])cc3S(=O)(=O)[O-])c3ccc(=[N+](CC)CC)cc-3oc2c1.[Na+] [Acid Red 52]	2
